The whole screen tested about 340,000 compounds, of which about 6,200 (1.8%) were called active. Inconclusive results, whose numbers are uncertain, are shown with a selection of clear calls. Calls follow the shape of the dose curve; as a rule, active = well fitted activation curve with a large enough effect; inconclusive = small, poorly fitted or top-dose-only effect; inactive = no such curve, though single readings can be large or run the other way. Potencies of inconclusive entries are doubtful fits and often do not repeat.
test: A quantitative high throughput screen for small molecules that induce DNA re-replication in SW480 colon adenocarcinoma cells.; also: nearly all actives have a fitted effect of over 55% in size; settings: Hoechst DNA content imaging, 48 h; series mostly up to 46.1 µM
Summary of the method: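 Compounds, transferred as 23 nL by pin tool, were incubated with cells for 48 hr; DNA content per nucleus was then quantified by Hoechst staining and fluorescence plate imaging.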
Potency is read from the fitted curve at half-maximal effect.

SMILES	Potency
O=C(COc1ccc2c3c(c(=O)oc2c1)CCCC3)NCCCn1ccnc1	inactive
Cc1c(/C=N/Nc2ccc(F)cc2)c(O)n(C)c(=O)c1C#N	inconclusive: 0.731 µM [activator, partial curve, poor fit]
O=C(Nc1nnc(-c2ccc(Br)cc2)o1)c1ccco1	inactive
CC(=O)c1ccccc1NS(=O)(=O)c1ccc2c(c1)CC(=O)N2	inconclusive: 6.51 µM [activator, single point]
O=C(CSc1nnc(-c2ccc(Cl)cc2)n1-c1ccccc1)N/N=C/c1ccccc1C(=O)O	inconclusive: 18.4 µM [activator, partial curve, poor fit]
O=C(N/N=C/c1cc([N+](=O)[O-])ccc1O)C12CC3CC(CC(C3)C1)C2	inconclusive: 29.1 µM [activator, single point]
CCN(CC)Cc1c(O)ccc2c(=O)c(-c3ccccc3Cl)coc12	inconclusive: 29.1 µM [activator, single point]
Cc1nnc(NCc2n[nH]c(=O)c3ccccc23)c2ccccc12	inconclusive: 29.1 µM [activator, single point]
COc1ccc(-c2ccnc(-c3ccc(O)cc3)n2)cc1	active: 8.2 µM
COc1ccc(/C=N/Nc2ccc(C(=O)O)cc2)c(OC)c1OC	inactive
COc1ccccc1Cn1c(/C=C/c2ccccc2)nc2ccccc21	inconclusive: 23.1 µM [activator, single point]
O=C1c2ccccc2[C@@H]2C[C@@H](O)[C@H](Nc3cccc4ccccc34)CCN12	active: 18.4 µM
CCn1c(SCc2cccc(F)c2)nnc1-c1cccnc1	inconclusive: 3.66 µM [activator, partial curve, poor fit]
O=C(Nc1ccc(-c2csc(Nc3ccccc3)n2)cc1)c1ccccc1	inconclusive: 20.6 µM [activator, partial curve, poor fit]
COc1ccc(/C(C)=N/NC(=S)NCCc2ccccc2)c(O)c1	inactive
Cc1cccc(NC(=O)c2ccc(NC(C)c3ccccc3)c([N+](=O)[O-])c2)n1 (stereo not given)	inconclusive: 29.1 µM [activator, single point]
O=C(c1cc(-c2cccs2)nc2ccccc12)N1CCN(c2ccccc2)CC1	inconclusive: 18.4 µM [activator, single point]
COc1ccc(CNc2cc(C)nc3ccc(OC)cc23)cc1	inconclusive: 29.1 µM [activator, partial curve, poor fit]
CCOC(=O)c1sc(NC(=O)c2ccc(OC(C)=O)cc2)nc1C	inactive
COc1ccccc1CNS(=O)(=O)c1ccc(-c2cnc(C3CC3)o2)cc1	inconclusive: 0.146 µM [activator, full curve, poor fit]
Cc1cc2cc(CNC(=S)Nc3ccc(OC(F)F)cc3)ccc2n1C	inactive
COc1ccc(OCCCC(=O)N2CCN(S(=O)(=O)c3cccc(F)c3)CC2)cc1	inconclusive: 20.6 µM [activator, partial curve, poor fit]
O=C(CO/N=C/c1ccccc1OC(F)F)NCc1cccs1	inconclusive: 20.6 µM [activator, single point]

SMILES	Potency
Cc1ccc(-c2nn3c(C)nnc3s2)cc1NC(=O)c1ccc(Br)o1	inactive
CCN1CCN(CCCNC(=O)c2ccc3c(Cl)c4c(nc3c2)CCCC4)CC1	inconclusive: 29.1 µM [activator, single point]
O=C(CN1C(=O)c2ccccc2C1=O)N1CCN(c2ccccn2)CC1	inconclusive: 29.1 µM [activator, partial curve, poor fit]
COCCn1c(C23CC4CC(CC(C4)C2)C3)n[nH]c1=S	inactive
N#C/C(=C(/O)CCl)c1nc2ccccc2[nH]1	inconclusive: 25.9 µM [activator, single point]
CCOc1ccc(NC(=O)c2ccco2)c([N+](=O)[O-])c1	inconclusive: 32.6 µM [activator, partial curve, poor fit]
CCc1c(C)c(C#N)c2nc3ccccc3n2c1NCCOC	inconclusive: 16.4 µM [activator, single point]
COc1ccc(CC(=O)NCc2n[nH]c(=S)n2-c2cccc(Cl)c2)cc1	inactive
O=C(c1cccc(S(=O)(=O)Nc2ccccc2Cl)c1)N1CCC1	inactive
CCOC(=O)C(CC)n1cnc2c(nnn2-c2ccc(F)cc2)c1=O (stereo not given)	inactive
CC[n+]1c(/C=C2/C=C(C)CC(C)C2)sc2ccccc21 (stereo not given)	inactive
Cc1cccc(N2CCN(C(=O)CC(NC(=O)c3ccccc3)c3ccccc3)CC2C)c1 (stereo not given)	inactive
Cc1ccc2cccc(OC(=O)c3ccc4c(c3)OCCO4)c2n1	inconclusive: 29.1 µM [activator, single point]
CC(CNC(=O)c1ccccc1Cl)NC(=O)c1ccccc1Cl (stereo not given)	inconclusive: 29.1 µM [activator, single point]
Cc1cc(C)nc(NC(N)=NCCc2c[nH]c3ccccc23)n1	inactive
Cc1cc(NC(=O)/C=C/c2ccccc2Cl)n(-c2nc3ccccc3[nH]2)n1	inconclusive: 11.6 µM [activator, partial curve, poor fit]
NC1=NC(c2cccc(O)c2)n2c(nc3ccccc32)N1 (stereo not given)	inconclusive: 0.146 µM [activator, full curve, poor fit]
O=C(O)c1ccc(Cn2cnc3c(=O)[nH]cnc32)cc1	inactive
Cc1cc(NC(=O)c2cc([N+](=O)[O-])ccc2Cl)no1	inconclusive: 20.6 µM [activator, single point]
Cn1c(=O)c2c(-c3ccccc3)n(-n3cnnc3)cc2n(C)c1=O	inconclusive: 20.6 µM [activator, single point]
O=C(N/N=C/c1cccnc1)c1ccc(CN2c3cccc4cccc(c34)S2(=O)=O)cc1	inactive
CCOC(=O)N1CCN(S(=O)(=O)c2ccc(C(=O)NNc3nc4ccc(Cl)cc4s3)cc2)CC1	inconclusive: 3.66 µM [activator, full curve, poor fit]

Four entries out of the list, sorted by molar mass, smallest number first.
SMILES	Potency
N#C/C(=C(/O)CCl)c1nc2ccccc2[nH]1	inconclusive: 25.9 µM [activator, single point]
CC[n+]1c(/C=C2/C=C(C)CC(C)C2)sc2ccccc21 (stereo not given)	inactive
CCc1c(C)c(C#N)c2nc3ccccc3n2c1NCCOC	inconclusive: 16.4 µM [activator, single point]
CCN1CCN(CCCNC(=O)c2ccc3c(Cl)c4c(nc3c2)CCCC4)CC1	inconclusive: 29.1 µM [activator, single point]
